The values that follow come from US20220364173.

The exact form of at least one protein or probe is not confirmed. A weaker result is weaker than the reference pair of the same experiment. Protein sequences can lack the tags named with them.

The data set deals with T1, MjDim1 (Dim1/KsgA dimethyltransferase) (Methanocaldococcus jannaschii) (UniProt Q58435).
T1 sequence (looked up, limits assumed): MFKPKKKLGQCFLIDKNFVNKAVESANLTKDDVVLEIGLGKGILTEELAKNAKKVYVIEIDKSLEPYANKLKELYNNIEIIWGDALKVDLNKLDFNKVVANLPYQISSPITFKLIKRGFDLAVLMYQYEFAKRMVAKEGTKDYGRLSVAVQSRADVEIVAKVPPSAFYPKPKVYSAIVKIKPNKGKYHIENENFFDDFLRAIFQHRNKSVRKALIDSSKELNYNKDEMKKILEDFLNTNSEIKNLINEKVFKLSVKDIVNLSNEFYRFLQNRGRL
The data set can be described thus: activity assay. The settings on record: allyl-SAM cofactor, Km similar, purified recombinant protein.

As for “CGUGGACUGGCU [12mer m6A RNA (Maldi_Probe_m6A)]”, under “m6A at the A of GGACU, MALDI shows allyl transfer, kcat 10-fold that of unmodified A”, the “activity on this sequence” value is reported as “active”.

As for “CGUGGACUGGCU [12mer unmodified RNA (Maldi_Probe_A)]”, where the note is “no product by MALDI, kcat about 10-fold lower than m6A probe, variant of 12mer m6A RNA (Maldi_Probe_m6A)”, the “activity on this sequence” value was “less active”.
